Measured values reported in paper PMC5095031.
No constants are given. Whether binding was seen depends on the method and setting. For some of these results: In cells and extracts the contact can be indirect. Some results given as binding are weak or reduced against the parent protein; the word gives no strength. For some of these results: Where a sequence is shown, tags or fusion partners need not be part of it. One block for each molecule: values may come before it.

Amino acid sequences for entries named in this document (tags omitted). A change or cut given only in a name is not applied to a line headed by its entry.
UniProt Q96FW1: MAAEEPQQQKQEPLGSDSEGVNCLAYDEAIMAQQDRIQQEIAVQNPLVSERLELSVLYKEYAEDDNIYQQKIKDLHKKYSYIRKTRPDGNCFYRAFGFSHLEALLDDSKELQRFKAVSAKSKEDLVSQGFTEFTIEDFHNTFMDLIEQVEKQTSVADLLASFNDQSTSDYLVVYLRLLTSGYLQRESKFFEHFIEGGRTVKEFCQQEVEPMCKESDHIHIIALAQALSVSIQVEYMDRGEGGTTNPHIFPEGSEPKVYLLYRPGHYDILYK

Experiments:
GST-FOXM1 = target: T1, GST-FOXM1 (UniProt Q08050); test: pull-down; GST-pulldown: purified GST fusion protein incubated with purified HIS-OTUB1 proteins in 25 mM tris pH 8.0, 75 mM NaCl, 2.5 mM EDTA, 5 mM MgCl2, 2.5 mM DTT, 1% NP-40 at 37°C for 30 min; glutathione sepharose 4B; washes 100 to 400 mM NaCl; both purified
T1 sequence: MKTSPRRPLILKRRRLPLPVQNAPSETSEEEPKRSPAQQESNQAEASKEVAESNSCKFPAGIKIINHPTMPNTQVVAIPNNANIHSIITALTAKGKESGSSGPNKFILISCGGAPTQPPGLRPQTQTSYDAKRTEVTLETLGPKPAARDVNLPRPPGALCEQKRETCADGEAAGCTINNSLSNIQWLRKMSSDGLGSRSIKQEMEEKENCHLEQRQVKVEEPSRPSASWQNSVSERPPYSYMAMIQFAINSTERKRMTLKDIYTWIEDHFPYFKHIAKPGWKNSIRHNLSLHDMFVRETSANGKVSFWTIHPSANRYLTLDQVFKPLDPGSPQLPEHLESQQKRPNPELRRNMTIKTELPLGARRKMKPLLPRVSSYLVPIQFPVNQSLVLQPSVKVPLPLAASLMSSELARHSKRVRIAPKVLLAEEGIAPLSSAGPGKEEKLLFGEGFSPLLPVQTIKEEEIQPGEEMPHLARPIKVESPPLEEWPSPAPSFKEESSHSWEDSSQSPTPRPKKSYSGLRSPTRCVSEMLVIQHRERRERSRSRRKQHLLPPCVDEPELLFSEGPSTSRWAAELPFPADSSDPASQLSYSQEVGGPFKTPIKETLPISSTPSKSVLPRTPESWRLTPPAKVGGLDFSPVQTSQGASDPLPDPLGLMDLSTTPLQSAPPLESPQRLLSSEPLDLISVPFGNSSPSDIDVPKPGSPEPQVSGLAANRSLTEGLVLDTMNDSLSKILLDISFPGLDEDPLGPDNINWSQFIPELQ

[1] = target: T2, FOXM1 (in vivo co-IP of Figure 5C) (UniProt Q08050); test: co-IP; in vivo co-IP of OTUB1 full length and truncations with FOXM1; cell line not stated; 15% of lysate as input
T2 sequence: T1 sequence

[2] = target: endogenous OTUB1 (CAOV3 cells) (human (endogenous in CAOV3)) (UniProt Q96FW1); test: co-IP; IP of endogenous proteins from CAOV3 lysates, reciprocal; also after siRNA knockdown of OTUB1 or FOXM1; 15% of lysate as input

- binding (GST-FOXM1): binds
Molecule: HIS-tagged OTUB1^ΔN15 (from UniProt Q96FW1 16-271) (domain or fragment)

- binding (GST-FOXM1): binds
Molecule: HIS-tagged OTUB1^ΔN46 (from UniProt Q96FW1 47-271) (domain or fragment)

- binding (GST-FOXM1): binds
Molecule: HIS-tagged OTUB1^ΔN171-271 (from UniProt Q96FW1 1-170) (domain or fragment)

- binding [1]: binds
Molecule: OTUB1^ΔN15 (in vivo co-IP of Figure 5C) (from UniProt Q96FW1 16-271) (domain or fragment)

- binding [1]: binds
Molecule: OTUB1^ΔN46 (in vivo co-IP of Figure 5C) (from UniProt Q96FW1 47-271) (domain or fragment)

- binding [1]: binds
Molecule: OTUB1^ΔN171-271 (in vivo co-IP of Figure 5C) (from UniProt Q96FW1 1-170) (domain or fragment)

- binding [2]: binds
B1: endogenous FOXM1 (CAOV3 cells) (protein, UniProt Q08050 1-763)
chain: T1 sequence
